Where a name gives a salt, the structure may show the parent alone. The list shows a part of the results. Hit calls seldom repeat between salt and free forms of one compound.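 Kinases, fused to nanoluciferase, were expressed in K562 cells; luminescence was measured every 4 h from 2 to 18 h as percent of control (DMSO = 100%, positive control = 0%). A time point is decreased if signal falls significantly (2 sigma). Hits were called by the authors by a rule that is not shown; the count of time points alone does not decide it.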
Target: DYRK1B (UniProt Q9Y463)
Experiment: number of time points (of 5) at which kinase-Nluc abundance scored as decreased, DMSO-normalised (count); higher = more persistent destabilization
Details: K562; 2-18 h

Amino acid sequences for entries named in this document (tags omitted).
UniProt Q9Y463, whole entry, looked up: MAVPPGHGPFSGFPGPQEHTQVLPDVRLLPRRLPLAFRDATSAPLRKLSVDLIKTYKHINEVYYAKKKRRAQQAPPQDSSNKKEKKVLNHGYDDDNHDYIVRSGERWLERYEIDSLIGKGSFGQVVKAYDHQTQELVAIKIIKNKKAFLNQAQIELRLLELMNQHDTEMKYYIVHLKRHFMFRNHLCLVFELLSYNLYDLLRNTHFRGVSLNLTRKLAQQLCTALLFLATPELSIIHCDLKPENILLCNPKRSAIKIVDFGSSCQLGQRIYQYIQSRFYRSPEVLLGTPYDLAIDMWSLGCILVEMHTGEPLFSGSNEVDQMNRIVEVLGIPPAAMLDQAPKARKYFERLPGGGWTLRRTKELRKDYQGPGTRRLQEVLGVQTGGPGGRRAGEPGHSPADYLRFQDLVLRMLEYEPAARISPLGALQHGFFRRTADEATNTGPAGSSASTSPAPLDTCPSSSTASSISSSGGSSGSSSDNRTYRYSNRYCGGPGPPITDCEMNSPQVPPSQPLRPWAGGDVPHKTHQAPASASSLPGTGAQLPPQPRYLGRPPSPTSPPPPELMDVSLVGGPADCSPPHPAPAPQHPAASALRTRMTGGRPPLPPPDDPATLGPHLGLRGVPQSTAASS

How did the “number of time points” value turn out when C[C@@H]1O[C@@H](O[C@H]2[C@H](Oc3cc(O)c4c(=O)cc(-c5ccc(O)cc5)oc4c3)O[C@H](CO)[C@@H](O)[C@@H]2O)[C@H](O)[C@H](O)[C@H]1O [Rhoifolin] (10 µM) was run?
The value was 0.

O=[N+]([O-])c1cc(C(F)(F)F)cc([N+](=O)[O-])c1NNC(=S)Nc1ccc(F)cc1 (10 µM) was tested. Which “number of time points” value did it give?
Its value is 0.

CCc1cc(O)c(F)cc1-c1ccc2c(-c3nc4c([nH]3)CN(C3CCN(C)CC3)CC4)n[nH]c2c1 [JAK-IN-5 (hydrochloride)] (2 µM) was tested. Which “number of time points” value did it give?
Its value is 0.

O=C(Nc1cccnc1)c1cc(C(=O)c2c(F)cccc2Br)c[nH]1 (10 µM) was tested. Which “number of time points” value did it give?
Its value is 0.

With COc1ccc2c(c1O)OC(C)(C)c1c-2ccc2c1C(=O)N(c1ccc(C(=O)c3ccccc3)cc1)C2=O [Ampkinone] (10 µM) as the compound, how does the “number of time points” value read?
The value was 0.

How did the “number of time points” value turn out when CC1CCc2nc(N)c(C#N)c(-c3cccnc3)c2C1 (stereo not drawn) (10 µM) was run?
The value was 0.

COc1cc(F)c(F)c(Nc2ccc(I)cc2F)c1NS(=O)(=O)C1(C[C@H](O)CO)CC1 [Refametinib] (10 µM) was tested. Which “number of time points” value did it give?
The value was 0.

Which “number of time points” value does the source give for Cn1nccc1Nc1nccc(-c2cc3c(s2)C(C)(C)N(CCN2CCOCC2)C3=O)n1 (10 µM) here?
The value was 0.

Which “number of time points” value does the source give for Cc1ccc(-c2c(C(=O)CCl)n(CCCO)c3ncnc(N)c23)cc1 (10 µM) here?
The value was 0.

With N[C@H](Cc1c[nH]c2ccccc12)C(=O)N/N=C/c1ccc2nccnc2c1 [Rhosin (hydrochloride)] (10 µM) as the compound, how does the “number of time points” value read?
Its value is 0.

CNCc1ccccc1-c1csc([C@@H](C)Nc2nc(C)nc3cc(OC)c(OC)cc23)c1 (2.5 µM) was tested. Which “number of time points” value did it give?
Its value is 1.

Cn1cnc(-c2cc3nccc(Oc4ccc(NC(=S)NC(=O)Cc5ccccc5)cc4F)c3s2)c1 [MGCD-265 analog] (10 µM) was tested. Which “number of time points” value did it give?
The value was 0.

C=C1C(=O)O[C@@H]2C[C@@]3(C)CCC[C@H](C)C3=C[C@H]12 [Alantolactone] (10 µM) was tested. Which “number of time points” value did it give?
Its value is 0.

O=C(Nc1ccc(F)cc1F)[C@H](NC(=S)Nc1cc(C(F)(F)F)cc(C(F)(F)F)c1)c1ccccc1 (2.5 µM) was tested. Which “number of time points” value did it give?
Its value is 0.

Fc1ccc(-c2nc(-c3ccccc3F)[nH]c2-c2ccncc2)cc1 (2.5 µM) was tested. Which “number of time points” value did it give?
Its value is 0.

How did the “number of time points” value turn out when Cc1ccc(Oc2nc3cc(-c4ccc5c(ccn5C)c4)c(Cl)cc3[nH]2)cc1C(=O)O (10 µM) was run?
Its value is 0.

COc1ccc([C@H]2c3[nH]c4ccc(Cl)cc4c3CCN2C(=O)Oc2ccc(Cl)cc2)cc1 (2.5 µM) was tested. Which “number of time points” value did it give?
The value was 0.

With COc1ncc(-c2nc(N3CCOCC3)nc3c(CN4CCC(C(C)(C)O)CC4)cc(F)cc23)cc1NS(C)(=O)=O [Linperlisib] (10 µM) as the compound, how does the “number of time points” value read?
The value was 0.

With C[C@@H](c1ccc2nccn2c1)n1nnc2ncc(-c3cnn(C)c3)nc21 [Savolitinib] (10 µM) as the compound, how does the “number of time points” value read?
The value was 0.

With CCn1c(-c2nonc2N)nc2cnc(Oc3cccc(NC(=O)c4ccc(OCCN5CCOCC5)cc4)c3)cc21 (10 µM) as the compound, how does the “number of time points” value read?
The value was 0.

COc1ccc(C(=O)Nc2sc3c(c2C(N)=O)CCCC3)cc1OC (10 µM) was tested. Which “number of time points” value did it give?
The value was 0.

With COc1ccc(CC(=O)Nc2nc3c(s2)CCc2ccccc2-3)cc1OC (10 µM) as the compound, how does the “number of time points” value read?
Its value is 0.

O=C1Nc2nc(-c3c(O)cccc3OCC3CC3)cc([C@@H]3CCCNC3)c2CO1 [Bay 65-1942 (hydrochloride)] (10 µM) was tested. Which “number of time points” value did it give?
The value was 0.

From the supplement of paper PMC12823440, “Inhibitors supercharge kinase turnover through native proteolytic circuits” (Nature, 2025)
